The text below walks through data of PubChem BioAssay AID1956 (SRMLSC, 2009).

This is one part of the list. Some of these compounds have results that are not shown, active ones among them.

This test in a line: enhancers of HSV replication in host cells, fold increase, host cell viability (AID 1956). Further: tested in PC3 cells. The settings on record: HSV replication augmentation in cells; fold increase: measured here: primary screen fold increase 10 uM, at 10 µM, stronger effect = higher value; viability: measured here: host cell viability series, at 25 µM, stronger effect = lower value.
For `COc1cccc(C(=O)NCC2(N3CCCCC3)CCCCC2)c1`, the fold increase is 0.95.

Take `COc1ccc(Br)c(C(=O)NCC2(N3CCCCC3)CCCCC2)c1`: the fold increase is 1.05.

Take `CN(C)c1cccc(C(=O)NCC2(N(C)C)CCCCC2)c1`: the fold increase came out at 0.92.

Take `O=C(OC1CN2CCC1CC2)C(CO)(c1ccccc1)c1ccccc1` (configuration not stated): the fold increase amounted to 0.82.

Turning to `CC(C)N1C(=O)CC2(CCN(CCOC(=O)C(O)(c3ccccc3)c3ccccc3)CC2)C1=O`, the fold increase was determined as 0.93.

On to `CCN(CC)CC(C)C(C)OC(=O)C(O)(c1ccccc1)c1ccccc1` (configuration not stated), for which the fold increase was found to be 0.87.

As for `O=C(NCC1(N2CCCCC2)CCCCC1)c1cc([N+](=O)[O-])ccc1Cl`, the fold increase came out at 1.51 and the viability was 94.5%.

Turning to `C=CCN1CCN(CCOC(=O)C(O)(c2ccccc2)c2ccccc2)CC1`, the fold increase is 0.99.

Take `CCN1CCCC(OC(=O)C2(O)c3ccccc3C=Cc3ccccc32)C1` (configuration not stated): the fold increase stood at 0.84.

Regarding `Cc1ccccc1C(=O)NCC1(N2CCCCC2)CCCCC1`, the fold increase stood at 1.14.

With `CN(C)C1CCCC1OC(=O)C(O)(c1ccccc1)c1ccccc1` (configuration not stated), the fold increase is 1.07.
